Assay results: PubChem BioAssay AID1794845 (National Center for Advancing Translational Sciences (NCATS), 2023)
Screen size: about 6,900 compounds; fewer than 10 were called active. Calls come from the whole dose curve; as a rule, active = well fitted curve in the direction sought with a large enough effect; inconclusive = small, poorly fitted or top-dose-only effect, or another doubt; inactive = no such curve, though single readings can be large or run the other way. The list shows a part of the results.
Note: % of control where 0% means no effect.

Amino acid sequences for entries named in this document (tags omitted). A change or cut given only in a name is not applied to a line headed by its entry.
UniProt C7C422: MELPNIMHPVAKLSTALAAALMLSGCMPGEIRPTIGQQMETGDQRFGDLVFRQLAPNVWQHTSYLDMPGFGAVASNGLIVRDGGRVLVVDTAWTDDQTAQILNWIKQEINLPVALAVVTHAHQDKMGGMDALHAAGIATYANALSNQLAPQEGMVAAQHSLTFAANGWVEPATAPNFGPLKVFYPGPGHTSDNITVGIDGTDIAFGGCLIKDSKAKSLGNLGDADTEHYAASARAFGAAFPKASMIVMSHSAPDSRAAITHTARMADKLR

These molecules were tested against Metallo-beta-lactamase type 2 (Klebsiella pneumoniae) (UniProt C7C422) (assay: qHTS to identify inhibitors of the New Delhi Metallo-beta-lactamase (NDM): primary screen against the NCATS Gemini Collection). Conditions: NDM-1 enzyme, meropenem hydrolysis, absorbance 300 nm; at 38.4 µM (top of the series) unless noted.
Method in brief: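 Meropenem hydrolysis (50 uM final) by 2 nM NDM-1 read as 300 nm absorbance after 30 min, following >30 min compound–enzyme preincubation in HEPES pH 7.0 with 1 uM ZnSO4 and 0.01% Tween20.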
`CCc1nc(NCCOC)ncc1C(=O)O` was tested, and the activity % (negative = inhibition) was inactive: 19%.
For `COc1ccc(OCC(O)CN2CCC(=O)N(CC3CC3)Cc3cc(OC)ccc32)cc1` (centres undefined), the activity % (negative = inhibition) was inactive: 2.48%.
For `O=C(Nc1ccccc1Cl)N1CCC(n2cc(C3CCCC3)nn2)CC1`, the activity % (negative = inhibition) was inactive: -0.321%.
For `COC(=O)NCC(=O)N1CC[C@@H]2[C@@H](CCC(=O)N2CCc2ccccc2)C1`, the activity % (negative = inhibition) was inactive: -4.62%.
In the case of `COCC(=O)N1CC2(CCCCC2)CC1COc1ccc(OC)cc1` (centres undefined), the activity % (negative = inhibition) was inactive: 5.86%.
With `O=c1n(-c2ccncc2)nc2n1CCN(Cc1ccsc1)C2` the activity % (negative = inhibition) was inactive: 1.1% [at 57.5 µM].
`Cc1ncsc1CN(Cc1ccccc1)C(=O)c1cn(CCC2CCCCC2)nn1` was tested, and the activity % (negative = inhibition) was inactive: -2.52%.
With `CC(C)NS(=O)(=O)c1ccc2c(c1)nc(-c1cc(C(C)(C)C)[nH]n1)n2C(C)C` the activity % (negative = inhibition) was inactive: 29.2%.
`CN1C[C@@H](NC(=O)Nc2ccccc2)C[C@H]1c1nc(Cc2ccccc2)no1` was tested, and the activity % (negative = inhibition) was inactive: 7.9% [at 57.5 µM].
`Cc1nn(CCO)cc1-c1c(-c2ccccc2)ncn1CC(=O)O` was tested, and the activity % (negative = inhibition) was inactive: 23.9%.
For `COc1cccc(CN2C(=O)CCCCC2C(=O)NCCc2c[nH]c3ccc(OC)cc23)c1` (centres undefined), the activity % (negative = inhibition) was inactive: -5.23%.
In the case of `COCC(=O)Nc1ncncc1-c1noc([C@@H]2CCCN2Cc2cc(OC)c(OC)c(OC)c2)n1`, the activity % (negative = inhibition) was inactive: 7.1%.
`O=C(NC1CCCC1)N[C@@H]1C[C@H](Cn2cc(C3CC3)nn2)[C@@H](O)[C@H]1O` was tested, and the activity % (negative = inhibition) was inactive: 22.7% [at 57.5 µM].
With `CCc1nc(C)c(C(=O)N2CC[C@@](O)(COC)C(C)(C)C2)s1` the activity % (negative = inhibition) was inactive: 5.18%.
In the case of `O=C(c1cccs1)N1CC[C@H]2COC(=O)N2c2cc(F)ccc2C1`, the activity % (negative = inhibition) was inactive: -0.338% [at 57.5 µM].
With `COc1ccccc1CC(=O)Nc1cccn2nc(C(C)C)nc12` the activity % (negative = inhibition) was inactive: 4.57%.
In the case of `O=S(=O)(Cc1ccccc1)N1CCCC(Cc2noc(-c3cccnc3)n2)C1` (centres undefined), the activity % (negative = inhibition) was inactive: 1.01%.
With `O=C(CC1CCCC1)N1CC2CC(C1)[C@H]1CCCC(=O)N1C2` (some centres undefined) the activity % (negative = inhibition) was inactive: -2.15%.
`Cc1nc(NCCn2ncc3ccccc3c2=O)cc(C2CC(O)C2)n1` (centres undefined) was tested, and the activity % (negative = inhibition) was inactive: -1.52%.
For `Cc1ccc([C@@H]2CN(C(=O)c3c(-c4ccccc4)noc3C)C[C@H]2N(C)C)cc1`, the activity % (negative = inhibition) was inactive: 3.5%.
In the case of `CC(C)(C)C(=O)N1CCC(N2CCCC(C(=O)NCc3ccccc3)C2)CC1` (centres undefined), the activity % (negative = inhibition) was inactive: 0.229%.
For `Cc1ccc2c(c1)N(CC(=O)N1[C@@H]3CC[C@H]1CNC(=O)C3)C(=O)CO2`, the activity % (negative = inhibition) was inactive: 25.6%.
For `O=C1NCCOCCCN(C(=O)NCCc2ccccc2)[C@H]2CCCC[C@@H]12`, the activity % (negative = inhibition) was inactive: 7.97%.
In the case of `Cc1ccc(C(=O)N2CCCCCCNC(=O)[C@@H]3C[C@@H](c4nc(Cc5ccccc5)no4)C[C@@H]32)s1`, the activity % (negative = inhibition) was inactive: 0.811%.
`O=C(O)C(c1ccc2c(c1)OCCO2)N1CCCN(c2ncccn2)CC1` (centres undefined) was tested, and the activity % (negative = inhibition) was inactive: -2.88%.
For `O=C(O)c1ccc(CN2CCC[C@H]2c2nc(-c3ccc(F)cn3)no2)cc1`, the activity % (negative = inhibition) was inactive: 17% [at 57.5 µM].
`CN1CC[C@H]2CN(C(=O)C3(Cn4ccnc4)CC3)C[C@@]2(C(=O)O)C1` was tested, and the activity % (negative = inhibition) was inactive: 3.04%.
`O=C(c1cn(C2CNC2)nn1)N1CCOCC1` was tested, and the activity % (negative = inhibition) was inactive: -7.99%.
`COCCN1CC(C(=O)NCCOc2ccccc2)CCC1=O` (centres undefined) was tested, and the activity % (negative = inhibition) was inactive: 2.59%.
In the case of `CC(=O)N[C@@H]1CCNC[C@@H]1c1nc(-c2ccccc2)no1`, the activity % (negative = inhibition) was inactive: 0.382%.
In the case of `c1ccc(-c2cc3c(cn2)NCCN(Cc2ccccn2)C3)cc1`, the activity % (negative = inhibition) was inactive: 16.8% [at 57.5 µM].
With `O=C1c2cccnc2OC(COc2ccccc2)CN1Cc1cccs1` (centres undefined) the activity % (negative = inhibition) was inactive: 5.15% [at 16.1 µM].
For `Cn1nc(C2CCCN2)c2c(C(=O)N3CCOCC3)cc(C3CC3)nc21` (centres undefined), the activity % (negative = inhibition) was inactive: 4.87%.
For `CCC(C)NC(=O)Cn1nc(C)c2sc(-c3ccccc3)nc2c1=O` (centres undefined), the activity % (negative = inhibition) was inactive: -0.811%.
`CCCCS(=O)(=O)N1CCC(F)(c2nc(-c3ccccc3)no2)CC1` was tested, and the activity % (negative = inhibition) was inactive: 0.41%.
For `COc1cccc(-c2ccc(C(=O)N3CCC(NC(=O)N(C)C)CC3)cc2)c1`, the activity % (negative = inhibition) was inactive: 0.185%.
`COc1ccc(C(=O)N2CCC(N3CCCC3=O)CC2)cc1` was tested, and the activity % (negative = inhibition) was inactive: -2.85% [at 57.5 µM].
With `O=S(=O)(c1cc(F)ccc1F)N1CCC(n2cc(CCCO)nn2)CC1` the activity % (negative = inhibition) was inactive: 5.41%.
In the case of `O=C(c1ccc2ccccc2n1)N1C[C@@H](CO)[C@H](c2ccncc2)C1`, the activity % (negative = inhibition) was inactive: 0.775%.
In the case of `O=C(NCCOc1ccccc1)[C@@H]1C[C@H](c2ccc(F)cc2)N([S+](=O)([O-])C2CC2)C1`, the activity % (negative = inhibition) was inactive: 11.5% [at 57.5 µM].
In the case of `CC(O)c1cc2n(n1)CCN(S(=O)(=O)c1ccc3c(c1)NC(=O)CO3)C2` (centres undefined), the activity % (negative = inhibition) was inactive: 10.2%.
With `COCCOCc1nc(C2CCN(C(=O)Nc3ccc(C(=O)OC)cc3)CC2)no1` the activity % (negative = inhibition) was inactive: 9.06%.
`CC(C)CCN1CCC2(CC1)COc1ccccc1C(=O)N2` was tested, and the activity % (negative = inhibition) was inactive: -1.82% [at 57.5 µM].
In the case of `CC(C)CNC(=O)c1cc(-c2ccsc2)nc2c1cnn2C`, the activity % (negative = inhibition) was inactive: 84.3% [at 57.5 µM].
In the case of `COCC1CCN(CC2(O)CCCN(Cc3cccc(F)c3F)C2=O)CC1` (centres undefined), the activity % (negative = inhibition) was inactive: 37.3%.
For `O=C(CC[C@H]1NC(=O)c2ccccc2NC1=O)Nc1nnc(C2CC2)s1`, the activity % (negative = inhibition) was inactive: 4.25%.
In the case of `Cc1nnc([C@@H]2CC(F)(F)CN2C(=O)c2cccc3[nH]ccc23)o1`, the activity % (negative = inhibition) was inactive: 18.1%.
With `O=C(Nc1ccccc1)NC1CCCN(c2ccc3nnc(-c4ccccc4)n3n2)C1` (centres undefined) the activity % (negative = inhibition) was inactive: -0.527%.
`COC(=O)c1ccccc1NC(=O)Cn1nc2n(c1=O)CCCCC2` was tested, and the activity % (negative = inhibition) was inactive: 1.95%.
With `Cc1nc2c(OCC(=O)OC(C)(C)C)cccn2c(=O)c1-c1cc(C)n(-c2cccc(F)c2)n1` the activity % (negative = inhibition) was inactive: 9.08%.
`COc1ccc(S(=O)(=O)N2CCc3c(C(=O)NCc4ccncc4)cccc32)cc1` was tested, and the activity % (negative = inhibition) was inactive: 4.27%.
In the case of `O=C(NCC1CN(CC2CC2)CC12CN(c1ccccc1)C2)Nc1ccccc1` (centres undefined), the activity % (negative = inhibition) was inactive: -0.723% [at 57.5 µM].
`COc1ccc(CC(=O)Nc2ccc(N3CCC(NCCc4c(C)n[nH]c4C)CC3)cc2)cc1` was tested, and the activity % (negative = inhibition) was inactive: 4.42%.
`COc1ccc(CNC(=O)c2ccc(CN3C(=O)NC4(CCOCC4)C3=O)cc2)cc1` was tested, and the activity % (negative = inhibition) was inactive: 0.871%.
